The inconclusive results got no clear call from the source; some entries with a clear call stand among them for comparison. Where the call is inconclusive, the potency comes from a doubtful curve fit. Activity calls are given as the source filed them. Calls follow the shape of the dose curve; as a rule, active = well fitted inhibition curve with a large enough effect; inconclusive = small, poorly fitted or top-dose-only effect; inactive = no such curve, though single readings can be large or run the other way.
Test: Acumen qHTS Assay for Inhibitors of the mTORC1 Signaling Pathway in WT MEF Cells: Hit Validation; also: nearly all actives have a fitted effect of over 60% in size;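 as to activity change, negative = inhibition: phospho-rpS6 Ser235/236 immunofluorescence normalised to propidium iodide cell stain; percent of cells above a cutoff set by 7.5 nM rapamycin treated wells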
Settings: Acumen imaging; series mostly up to 37.3 µM; activity change, negative = inhibition: at the top concentration
In short: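 Read-out is immunofluorescent phospho-rpS6 (Ser235/236) normalised to PI-stained cell number, reported as % active cells using a 7.5 nM rapamycin threshold. Cells: WT or Tsc2-/-, p53-/- MEFs, compound-exposed 24 h at 37C; PI count also tracks viability.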
Potency is read from the fitted curve at half-maximal effect.

Potency, active:
Nc1c(C(=O)NCc2ccccc2)nnn1Cc1cccc(Br)c1 13.1 µM, Cc1c(C(=O)OCc2ccccc2)[nH]c2c1C(=O)CC(c1ccc(Cl)cc1)C2 (configuration not stated) 13.1 µM, CCS(=O)(=O)c1ncc(Cl)c(C(=O)NCc2ccccc2)n1 3.29 µM

Potency, inconclusive:
Cc1cccc(-n2ncc3c(Nc4c(C)cc(C)cc4C)ncnc32)c1 2.07 µM [inhibitor, full curve, poor fit], Cc1cccc(NC(c2cccc(Cl)c2)c2ccc3cccnc3c2O)n1 (configuration not stated) 6.56 µM [inhibitor, partial curve, poor fit], COc1ccc2c(Sc3ccccc3)c(C(=O)NCCCN3CCCCC3)[nH]c2c1 26.1 µM [inhibitor, single point], CCC1CCc2nc3sc(C(=O)Nc4ccc(C)cc4)c(N)c3cc2C1 (configuration not stated) 4.65 µM [inhibitor, partial curve], CCc1ccc(S(=O)(=O)N(C(=O)Oc2ccccc2)c2ccc3oc(C)c(C(=O)OC)c3c2)cc1 6.56 µM [inhibitor, partial curve], CCCC1=Nc2cc(C(=O)NCCOC)ccc2Sc2ccccc21 0.369 µM [inhibitor, full curve, poor fit]

Activity change, negative = inhibition, inactive:
COc1cc(Cl)c(C)cc1NC(=O)C1CCN(c2nc3ccccc3n3cccc23)CC1 -17.4%, Cc1ccc(NC(=O)CSc2nc(=O)cc(N)n2CCc2ccccc2)cc1 23.5%, Cc1nc2ccc(S(=O)(=O)CCC(=O)Nc3ccc(Cl)cc3)cc2s1 -9.92%
